{"source": "patent US11590075B2", "about": "“Methods and products for reducing adhesions” (priority 2017, dated 2023)", "key": {"[1]": {"tested_on": "IL-6 production in nasal fibroblast cells", "experiment": "IL-6 ELISA, nasal fibroblasts with IL-1β", "assay_type": "cell-based, human", "conditions": "in the presence of pro-inflammatory agent IL-1β; p=0.001", "description": "(§1) Supernatants were collected from HNECs and fibroblasts after 24 hours of exposure with different concentrations of deferiprone in the presence/absence of the pro-inflammatory agent Poly (I:C) (10 μg/ml) or IL-1β (10 ng/ml Sigma, Saint Louis, USA) respectively. Interleukin-6 (IL-6) protein levels were estimated with an ELISA kit using rat anti-human IL-6 antibodies (BD Biosciences, New Jersey, USA), according to the manufacturer's instructions. All measurements were performed in duplicate using a FLUOstar OPTIMA plate reader (BMG Labtech, Ortenberg, Germany). The tissue sample concentration was calculated from a standard curve and corrected for protein concentration."}, "[2]": {"tested_on": "IL-6 production in human nasal epithelial cells", "experiment": "IL-6 ELISA, HNECs with Poly (I:C)", "assay_type": "cell-based", "conditions": "in the presence of pro-inflammatory agent Poly (I:C); p=0.03", "description": "as §1"}}, "note": "At least one compound was matched to its structure with a doubt left.", "data": [{"compound": "CCCC1O[C@@H]2C[C@H]3[C@@H]4CCC5=CC(=O)C=C[C@]5(C)[C@H]4[C@@H](O)C[C@]3(C)[C@]2(C(=O)CO)O1", "note": "(some centres unmarked) [Budesonide]", "values": [{"measurement": "IL-6 in fibroblasts", "setting": "[1]", "result": "significantly reduced IL-6"}, {"measurement": "IL-6 in HNECs", "setting": "[2]", "result": "significantly reduced IL-6"}]}]}
